Measured values: PMC4941368
These are yes or no findings as the source states them, for the method shown. In cells and extracts the contact can be indirect. Some binding calls cover weakened binding; strength is not graded here.

Amino acid sequences for entries named in this document (tags omitted).
UniProt P01106: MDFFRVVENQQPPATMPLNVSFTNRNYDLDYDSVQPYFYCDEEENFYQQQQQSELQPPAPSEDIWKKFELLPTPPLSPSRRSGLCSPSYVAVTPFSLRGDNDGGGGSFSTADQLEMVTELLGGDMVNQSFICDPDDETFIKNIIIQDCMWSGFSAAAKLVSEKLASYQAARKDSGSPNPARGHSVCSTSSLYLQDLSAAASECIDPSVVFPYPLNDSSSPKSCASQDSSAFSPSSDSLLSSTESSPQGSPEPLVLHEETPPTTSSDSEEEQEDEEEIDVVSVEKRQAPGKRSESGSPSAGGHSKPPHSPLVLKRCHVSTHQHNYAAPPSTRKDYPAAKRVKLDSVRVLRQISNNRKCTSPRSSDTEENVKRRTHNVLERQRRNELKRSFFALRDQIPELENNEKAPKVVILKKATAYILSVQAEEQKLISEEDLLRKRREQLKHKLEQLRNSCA
UniProt P49715: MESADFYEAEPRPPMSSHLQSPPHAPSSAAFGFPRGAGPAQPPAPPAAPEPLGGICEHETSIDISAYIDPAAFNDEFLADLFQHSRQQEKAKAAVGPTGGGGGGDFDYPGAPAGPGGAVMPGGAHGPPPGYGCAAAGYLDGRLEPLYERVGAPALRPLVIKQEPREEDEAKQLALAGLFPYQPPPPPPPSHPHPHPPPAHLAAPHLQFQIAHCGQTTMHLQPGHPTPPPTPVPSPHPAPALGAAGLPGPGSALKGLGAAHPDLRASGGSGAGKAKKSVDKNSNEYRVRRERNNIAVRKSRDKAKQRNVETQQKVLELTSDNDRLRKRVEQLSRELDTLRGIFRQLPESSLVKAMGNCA

Molecular target: c-myc (endogenous, Huh7 cells) (human (endogenous in Huh-7)) (UniProt P01106)
Experiment: co-IP; lysate of Huh-7 cells transfected with pCDNA3.1-C/EBPα; precipitated with mouse anti-c-myc (sc-40) or mouse control IgG at 4°C overnight, protein G-sepharose; immunoblot with anti-flag antibody

binding: binds
Substance: C/EBPα (expressed from pCDNA3.1-C/EBPα) (from UniProt P49715 1-358)
